{
  "source": "patent US11766446B2",
  "about": "“Treatment of aging-associated conditions by DNA degradation” (The General Hospital Corporation, priority 2018, dated 2023)",
  "key": {"MRC5 cells [1]": {"test_system": "MRC5 cells", "assay": "Immunofluorescence anti-dsDNA staining of nuclear and cytosolic DNA in young and old MRC5 cells", "type": "cell-based, human", "conditions": "old MRC5 cells; rapamycin 100 nm, 24 h; FIG. 6G", "description": "Cells were cultured in Lab-Tek II 8-well chamber slides, fixed with 4% PFA (10 min), permeabilized with 0.5% Triton X-100 (5 min), then blocked and stained with antibodies against: dsDNA (Santa Cruz, 1:500), 7H2AX, NUP98, pTBK1 (both Cell Signaling, 1:200), LC3 (Novus Biologicals, 1:200) or biotin-LAMP1 (BioLegend, 1:200), followed by fluorescent secondary antibodies (45 min). Methanol fixation was used for anti-pIRF3 (Cell Signaling, 1:200) staining.\nNuclear and cytosolic DNA signals from 5 of 10× or 20× images (˜50-200 cells per image) were quantified using Fiji. Region of interest (ROI) was defined in each image and threshold set to measure fluorescence above background. Nuclear ROI was defined by DAPI staining and its intensity subtracted from total fluorescence to determine cytoplasmic signal. Quantitative fluorescence was presented as integrated density per cell with cell number determined by particle count of DAPI."}, "MRC5 cells [2]": {"test_system": "MRC5 cells", "assay": "RT-qPCR expression of IFNI-inducible, inflammatory and cell-cycle genes in young and old cells", "type": "cell-based, human", "conditions": "old MRC5 cells; rapamycin 1 nM, 8 hr; FIG. 2F", "description": "0.25-1 μg of total RNA was reverse-transcribed with High Capacity cDNA Reverse Transcription kit (Applied Biosystems). Quantitative PCR was then performed using LightCyler® 480 SYBR Master I reagents (Roche) on LightCyler® 96 instrument. Transcript levels were normalized to B2M or GAPDH. Primer pairs used are listed below."}},
  "note": "At least one structure is not confirmed: it was looked up by name or label, or the drawing left a doubt.",
  "data": [
    {"smiles": "CO[C@H]1C[C@@H]2CC[C@@H](C)[C@@](O)(O2)C(=O)C(=O)N2CCCC[C@H]2C(=O)O[C@H]([C@H](C)C[C@@H]2CC[C@@H](O)[C@H](OC)C2)CC(=O)[C@H](C)/C=C(\\C)[C@@H](O)[C@@H](OC)C(=O)[C@H](C)C[C@H](C)/C=C/C=C/C=C/1C", "note": "[rapamycin]", "values": [
      {"measurement": "amount of cytosolic DNA accumulation (anti-dsDNA IF)", "setting": "MRC5 cells [1]", "value": "reduced"},
      {"measurement": "MX1 expression (RT-qPCR)", "setting": "MRC5 cells [2]", "value": "reduced"}
    ]}
  ]
}
